The inconclusive results got no clear call from the source; some entries with a clear call stand among them for comparison. A potency beside an inconclusive call is a rough fit, not a confirmed value. The source made the active and inactive calls. Calls come from the whole dose curve; as a rule, active = well fitted inhibition curve with a large enough effect; inconclusive = small, poorly fitted or top-dose-only effect; inactive = flat fitted curve, though single readings scatter.
The compounds below were run on NanoLuc luciferase (engineered Oplophorus gracilirostris luciferase) (assay: Biochemical coelenterazine-based NLuc counterscreen for small molecule modulators of PMP22 gene expression - Km assay (AID 1508639;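 for activity change, negative = inhibition: substrate at 15 µM coelenterazine with 5 min compound preincubation before enzyme addition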)). Conditions: secreted NLuc enzyme, coelenterazine luminescence, Km conditions; series mostly up to 57.5 µM; activity change, negative = inhibition: at the top concentration.
Excerpt: Assay Provider: Jim Inglese Ph.D. National Center for Advancing Translational Science, National Institutes of Health, Rockville, MD CMT is a heterogeneous group of neurological disorders that affect approximately 1 in 2,500 people. In particular, the most common form of CMT, CMT1A is genetically linked to the duplication of the PMP22 gene which leads to Schwann cell overexpression, thus manifesting itself as a typical case of dose-sensitive diseases. To identify small molecule compounds that can mediate the expression of PMP22 we developed a phenotypic assay screening strategy by utilizing genome editing techniques to construct Schwann cell lines containing novel reporter technology to monitor the transcriptional or translational regulation of PMP22. For high sensitivity we use a bioluminescent reporter system embedded in the 3' UTR of the PMP22 gene (S16(c9) Pmp22-F2sN) to identify compounds that inhibit gene expression. […] We can further discriminate the effect of all transcriptionally active molecules on PMP22 translation or stability with an assay that incorporates a short NLuc peptide (HiBiT) at the C-terminus of expressed PMP22 (S16(f8) PMP22-HiBiT) allowing alpha complementation and luminescence detection of membrane-associated PMP22 protein. These assays were screened against the NCATS Sytravon Library Collection. Miniaturization of these assays to 1536-well plate format for quantitative high throughput screening (qHTS) yielded rich data sets immediately from the qHTS assay (S16(c9) Pmp22-F2sN), when compared with data from a cell viability assay (Cell TiterGlo) to identify compounds that decreased the output signals through cellular toxicity to streamline the selection process of actives for subsequent characterization using the HiBiT assay (S16(f8) PMP22-HiBiT).
Biochemical Coelenterazine-based solution NLuc assay (Km assay) PROTOCOL TABLE (format as described by Inglese J, Shamu CE and Guy RK. 2007) SEQUENCE No. (e.g., 1, 2, 3, etc.); PARAMETER (e.g., Cells, Incubation, Reagent, etc.); VALUE and DESCRIPTION. 1. Reagent. Add 2 uL substrate per well into Greiner 1536-well white/solid bottom high base, medium binding plates. 2. Compounds. Library compounds and controls added at 23nL per well, transferred by Pin Tool. 3. Incubation. Incubate plates 5 min at ambient temperature. 4. Reagent. Add 2uL NLuc enzyme solution per well of Greiner 1536-well plates. 5. Incubation. Incubate plates at room temperature for 10 min., protect from light. 6. Detector. FLuc luminescence measured using CCD-based camera (Viewlux). NOTES (numbers refer to Sequence numbers above; values are from representative experiments) 1. Freshly prepared 15 uM Coelenterazine, 0.3M Sodium Ascorbate, 0.005M NaCl and 0.1% TritonX in PBS pH7.4, filtered through […]. 4. Enzyme was obtained by filtering media of S16 cells expressing secreted NLuc (Inglese et al. 2014) grown to 80-90% confluency in DMEM High Glucose, No Phenol Red media + 10% heat inactivated FBS + 1% Pen/Strep supplemented media6. Luminescence Read (Fluc): Clear filter; Exposure = 10 sec, Gain = High, Speed = Slow, Binning = 2X 6. Luminescence Read (Nluc): Clear filter; Exposure = 1 sec, Gain = High, Speed = Slow, Binning = 2X REFERENCES: 1. Inglese J, Shamu CE and Guy RK, Reporting data from high throughput screening of small molecule libraries, Nature Chemical Biology, 2007, 3(8): 438-441. doi.org/10.1038/nchembio0807-438 2. Yasgar A, Shinn P, Jadhav A, Auld DS, Michael S, Zheng W, Austin CP, Inglese J and Simeonov A, Compound Management for Quantitative High-Throughput Screening. J. Assoc. Lab. Auto., 2008, 13: 79-89. doi: 10.1016/j.jala.2007.12.004 3. Inglese, J., Dranchak, P., Moran, J. J., Jang, S. W., Srinivasan, R., Santiago, Y., Zhang, L., Guha, R., Martinez, N., MacArthur, R., Cost, G. J., and Svaren, J. (2014) Genome editing-enabled HTS assays expand drug target pathways for Charcot-Marie-tooth disease, ACS Chem Biol 9, 2594-2602.
% is set by controls: 0 for no effect and ±100 for the full control effect; potency is the fitted concentration of half-maximal effect.

Which Potency does the source give for `COc1ccc(-c2c(C)nn3c(N4CCN(c5cc(Cl)ccc5C)CC4)cc(C)nc23)cc1OC` here?
Its Potency is inconclusive: 9.68 µM [inhibitor, full curve].

For `COc1ccc2c(c1)-c1nc(NC(=O)c3cc(Cl)ccc3OC)sc1CC2`, which “activity change, negative = inhibition” value is on record?
The value was inactive: -9.16%.

For `COC(=O)c1c(-c2ccc(Cl)cc2)noc1N1CCN(c2ccccc2OC)CC1`, which “activity change, negative = inhibition” value is on record?
The value was inactive: -2.52%.

With `COc1nnc(-c2ccc(N3CCCCC3)c(NC(=O)c3ccccc3)c2)c2ccccc12` as the compound, how does the Potency read?
Its Potency is inconclusive: 19.3 µM [inhibitor, partial curve].

Which “activity change, negative = inhibition” value does the source give for `Clc1ccc(-c2noc3ncnc(N4CCCCC4)c23)cc1` here?
The value was inactive: 4.51%.

With `Cc1cccc(Nc2c3c(nc4nncn24)CCC3)c1C` as the compound, how does the “activity change, negative = inhibition” value read?
The value was inactive: 8.81%.

How did the “activity change, negative = inhibition” value turn out when `CC1CCN(S(=O)(=O)c2ccc3ncn(CC(=O)Nc4ccccc4C(F)(F)F)c(=O)c3c2)CC1` was run?
The value was inactive: 1.51%.

With `COCCCNC(=O)c1ccc(Cn2c(=O)c3ccccc3n(Cc3ccc(Cl)cc3)c2=O)cc1` as the compound, how does the Potency read?
Its Potency is inconclusive: 24.3 µM [inhibitor, single point].

Which Potency does the source give for `CCOC(=O)c1oc2c(c1C)-c1nn(Cc3ccc(Cl)cc3)cc1CC2` here?
Its Potency is inconclusive: 24.3 µM [inhibitor, partial curve, poor fit].

Which Potency does the source give for `Cc1cc(Nc2cccc(Br)c2)n2c(nc3ccccc32)c1C#N` here?
The Potency was inconclusive: 27.3 µM [inhibitor, partial curve, poor fit].

How did the Potency turn out when `Cc1c(C(=O)OC2CCCCC2)[nH]c2c1C(=O)CC(c1ccccc1Cl)C2` (stereo not given) was run?
Its Potency is inconclusive: 12.2 µM [inhibitor, full curve, poor fit].

How did the “activity change, negative = inhibition” value turn out when `COC(=O)c1ccc(CSc2nc3c([nH]c4ccccc43)c(=O)n2-c2cccc(Cl)c2)o1` was run?
The value was inactive: -18%.

Which Potency does the source give for `CCOc1ccc(-n2ccnc2SCC(=O)Nc2nc3ccc(C)cc3s2)cc1` here?
Its Potency is inconclusive: 43.2 µM [inhibitor, single point].

Which “activity change, negative = inhibition” value does the source give for `COc1ccc(CC(=O)Nc2sc3c(c2C(=O)Nc2cccc(C)c2)CCCCC3)cc1` here?
Its value is inactive: 5.57%.

For `Cc1cccc(CS(=O)(=O)c2ncc(Cl)c(C(=O)Nc3nc4ccc(F)cc4s3)n2)c1`, which Potency is on record?
The Potency was inconclusive: 12.2 µM [inhibitor, partial curve].

`CCn1cc(C(=O)NCCc2ccc(OC)c(OC)c2)c(=O)c2cc(S(=O)(=O)N3CCCCCC3)ccc21` was tested. Which Potency did it give?
Its Potency is inconclusive: 27.3 µM [inhibitor, partial curve, poor fit].

How did the “activity change, negative = inhibition” value turn out when `Cn1c(=O)c2c(-c3ccccc3Br)n(C(C)(C)C)cc2n(C)c1=O` was run?
The value was inactive: -15.5%.

For `CN(C)CCNC(=O)c1ccc(Cn2c(=O)c3cccn3c3cccnc32)cc1`, which Potency is on record?
The Potency was inconclusive: 27.3 µM [inhibitor, single point].

How did the “activity change, negative = inhibition” value turn out when `CCc1ccc(NC(=O)Cn2c(=O)n(-c3ccc(OC)cc3)c(=O)c3ccc(C(=O)NCc4ccc(C)cc4)cc32)cc1` was run?
The value was inactive: 5.78%.

For `Cc1[nH]c2ccccc2c1C1(O)C(=O)N(Cc2ccccc2)c2ccc(Br)cc21` (stereo not given), which Potency is on record?
The Potency was inconclusive: 15.3 µM [inhibitor, partial curve].

Which Potency does the source give for `COc1ccc(-c2noc(CSc3nnc(C)n3-c3ccc(C)cc3)n2)cc1OC` here?
Its Potency is active: 13.7 µM.

For `Cc1ccc(CN2C(=O)C(O)(c3c(C)[nH]c4ccccc34)c3ccccc32)cc1` (stereo not given), which Potency is on record?
The Potency was inconclusive: 21.7 µM [inhibitor, partial curve].

With `CCCNC(=O)c1ccc2c(c1)N=C(CCC)c1ccccc1S2` as the compound, how does the Potency read?
Its Potency is active: 9.68 µM.

`Cc1ccc(NC(=O)CSc2nc3n[nH]c(C)c3c(=N)n2-c2ccccc2C)cc1C` was tested. Which Potency did it give?
The Potency was inconclusive: 15.3 µM [inhibitor, partial curve].

With `CCc1ccc(NC(=O)CN2CCSc3ccc(S(=O)(=O)N4CCCC4)cc32)cc1` as the compound, how does the Potency read?
Its Potency is inconclusive: 17.2 µM [inhibitor, partial curve].

`Cc1ccc(CNC(=O)Cn2c(=O)n(-c3cccc(Cl)c3)c(=O)c3sc4ccccc4c32)cc1` was tested. Which “activity change, negative = inhibition” value did it give?
The value was inactive: -3.35%.

For `Cc1cc(C)cc(-n2c(SCC(=O)Nc3nnc(C)s3)nc3c([nH]c4ccccc43)c2=O)c1`, which Potency is on record?
Its Potency is inconclusive: 4.85 µM [inhibitor, full curve, poor fit].

`O=C(CCS(=O)(=O)c1nc(-c2cccs2)cc(C(F)(F)F)n1)Nc1ccc(F)c(Cl)c1` was tested. Which Potency did it give?
Its Potency is inconclusive: 6.11 µM [inhibitor, full curve].

With `CCCNC(=O)c1cnn2c(C)c(Cc3c(C)cc(C)cc3C)c(C)nc12` as the compound, how does the Potency read?
Its Potency is active: 21.7 µM.

With `CCC(Sc1nncn2c1cc1occc12)C(=O)Nc1ccc(C)c(Cl)c1` (stereo not given) as the compound, how does the Potency read?
Its Potency is inconclusive: 12.2 µM [inhibitor, full curve].

`CC(=O)Nc1cccc(-c2nnc(SCC(=O)c3cc([N+](=O)[O-])ccc3Br)o2)c1` was tested. Which Potency did it give?
The Potency was active: 12.2 µM.

How did the Potency turn out when `O=C(Nc1cccc(-c2nc3ccccc3o2)c1)C(F)(F)F` was run?
The Potency was inconclusive: 9.68 µM [inhibitor, full curve, poor fit].

How did the “activity change, negative = inhibition” value turn out when `COc1ccc(C)cc1NC(=O)c1cc(S(=O)(=O)N2CCN(c3cccc(C)c3C)CC2)ccc1F` was run?
The value was inactive: 5.24%.

`Cc1cc(C)c(NC(=O)Cn2c(=O)oc3cc(S(=O)(=O)N4CCCCCC4)ccc32)c(C)c1` was tested. Which “activity change, negative = inhibition” value did it give?
The value was inactive: 1.69%.

With `Cc1c(Cl)cccc1NC(=O)CSc1ncc2c(n1)-c1ccccc1N(C)S2(=O)=O` as the compound, how does the Potency read?
The Potency was inconclusive: 12.2 µM [inhibitor, full curve].

How did the “activity change, negative = inhibition” value turn out when `CCCCCOc1ccc(/C=C/C(=O)Nc2sc(C)c(C)c2C(=O)OCC)cc1OC` was run?
Its value is inactive: 0.542%.

For `COc1cc(OC)c(OC)cc1/C=C/c1nc2cc3ccccc3cc2c(=O)n1-c1ccc(F)cc1F`, which Potency is on record?
The Potency was active: 2.17 µM.

How did the Potency turn out when `Cc1ccccc1CNC(=O)C1CCCN(c2nnc(-n3c(C)ccc3C)s2)C1` (stereo not given) was run?
Its Potency is inconclusive: 43.2 µM [inhibitor, partial curve, poor fit].

`CCOC(=O)c1c(C)oc2nc(C)nc(NCCc3ccc(OCC)cc3)c12` was tested. Which Potency did it give?
The Potency was inconclusive: 34.3 µM [inhibitor, single point].

Which “activity change, negative = inhibition” value does the source give for `O=S(=O)(c1cccc(Cl)c1)c1nnn2c1nc(NC1CCCCCC1)c1sccc12` here?
Its value is inactive: -2.81%.

From PubChem BioAssay (NCATS)
